According to PMC9570407:
Results are given in words; binding and its absence hold for the method and conditions named. Binding seen in cells or lysates may run through a third protein. A yes stands for co-enrichment or nearness to the bait. Other partners may have been found. For some assays here: No binding means not detected with the bait.

B1: PipA (Bud32p homologue) (protein, UniProt Q5BAB7 1-285)
chain: MPPTNRPPPFSTILSSASLPSYSSTDELTPIYQGAEAHLYKTTFLSPSQPAALKIRPSKPYRHPILDRRLTRARILQEARCLQKLVKEGVSVPALLGVDWEPSAGDGSSWLVMEWIEGEPVRVILEEWEAYLKGIEREKRLGLGEGVQGSEEEKVRGLMRRIGRAVGGLHRAGVIHGDLTTSNLMLRPLGSADTTETIEERDQSPSMAGEVVMIDFGLAMQSSQDEDRAVDLYVLERAFGSSHPRTERFFEEVLVGYRESYKGAVSALKRLEDVRMRGRKRSMIG
B2: AN2181, a homologue of the yeast Toa2p-TFIIA small subunit (protein, UniProt Q5BB99 1-111)
chain: MSAQAYYELYRGSSLGLSLTDTLDDLINEGRIEPQLAMKILSTFDRVITEVLADKVRTRLTFKGHLDTYRFCDEVWTFLIKDVNFKLDNQQTISADKVKIVSCNSKRPGEA
B3: CmkA, calcium/calmodulin-dependent protein kinase A (enzyme, UniProt Q00771 1-414)
chain: MSFANMFNKLSGQPESYEKKSLYRFGRTLGAGTYGIVREADCSSGKVAVKIILKRNVRGNERMVYDELDLLQKLNHPHIVHFVDWFESKDKFYIVTQLATGGELFDRICEYGKFTEKDASQTIRQVLDAVNYLHQRNIVHRDLKPENLLYLTRDLDSQLVLADFGIAKMLDNPAEVLTSMAGSFGYAAPEVMLKQGHGKAVDIWSLGVITYTLLCGYSPFRSENLTDLIEECRSGRVVFHERYWKDVSKDAKDFILSLLQVDPAQRPTSEEALKHPWLKGESASDRDLLPEIRAYIARSRLKRGIEIIKLANRIEALKMQEEDEEDIPSAVDVQASEASDKSGLSPFPALSTENSNTHPASTGNGESGGTKKRSLSKIARGAIFREVVLAKVREMKENEEREKVEREARERAHS
B4: PkaR, putative protein kinase A (PKA) regulatory subunit (protein, UniProt O59922 1-412)
chain: MSNYSHSSNNPFLKVSTKEDKPSSFHKIAEDEEYEVTSPTDATFRASKNADNSAGGNNPLESGRAGESGDGIRFGRDPFGNFQGGAEGQDESSIDPNGFRPTGGPDHGFPNNYALGRRTSVSAESLNPTSAGSDSWTPPSHPKSEEQLARLKTAVSNNFLFSHLDDEQSRTVLDALVEKPIPAKDIKVISQGDAGDYFYIVEEGHFDVYINPSGSVQPGPDGAGTKISTIGPGGSFGELALMYNAPRAATIVSTEPKSTLWALDRITFRRILMDSAFQRRRMYEAFLEEVPLLSSLKPYERAKIADALDTIKFPAGEYIIKEGDPGDAFYLLESGEAEAFMEGVEEPVKSYKRGDYFGELALLDDKPRAASVRAKTEVKVAKLGRDGFKRLLGPVENIMRRTEYSSRPSTAT

Tests used:
[1] = target: KaeA-TEV-GFP fusion (A. nidulans); assay: affinity purification with mass spectrometry; KaeA-TEV-GFP captured from mycelial extract on GFP-TrapA resin, 12 h at 4 °C, IPP 150 (10 mM HEPES pH 8.0, 150 mM NaCl), 0.1% Triton X-100, RNase cocktail; released by TEV protease; LC-MS; four biological experiments, two of them with DNase; hits absent from the untagged control strain (1)
[2] = target: KaeA-TEV-GFP fusion (A. nidulans); assay: condition: only with DNase (2 U of DNase TURBO during the purification); affinity purification with mass spectrometry; as a1, the samples with 2 U of DNase TURBO added during the purification

Row | Binder | binding [1] | binding [2]
1 | B1 | binds | –
2 | B2 | binds | –
3 | B3 | binds | no binding
4 | B4 | binds | –
